Source: paper PMC5469495, “MicroRNA319-regulated TCPs interact with FBHs and PFT1 to activate CO transcription and control flowering time in Arabidopsis” (PLoS Genetics, 2017)
These are yes or no findings as the source states them, for the method shown. For some assays here: Binding calls can cover weak binding; strength is not graded here. For some assays here: Binding seen in cells or lysates may run through a third protein.

Protein sequences, listed by entry. Tags and fused reporters are not part of them. Lines headed by an entry give the natural chain unless they say otherwise; changes in a name come on top.
UniProt Q66GR3: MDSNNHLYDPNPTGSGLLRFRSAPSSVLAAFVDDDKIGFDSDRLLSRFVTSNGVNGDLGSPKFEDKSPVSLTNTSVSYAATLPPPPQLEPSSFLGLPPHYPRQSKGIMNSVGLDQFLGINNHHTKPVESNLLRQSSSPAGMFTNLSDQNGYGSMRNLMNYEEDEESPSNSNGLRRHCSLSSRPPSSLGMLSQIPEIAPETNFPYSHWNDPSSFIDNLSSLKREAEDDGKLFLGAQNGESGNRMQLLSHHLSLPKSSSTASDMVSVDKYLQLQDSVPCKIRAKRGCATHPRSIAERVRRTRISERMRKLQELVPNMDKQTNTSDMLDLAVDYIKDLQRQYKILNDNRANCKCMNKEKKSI
UniProt Q9M0R0: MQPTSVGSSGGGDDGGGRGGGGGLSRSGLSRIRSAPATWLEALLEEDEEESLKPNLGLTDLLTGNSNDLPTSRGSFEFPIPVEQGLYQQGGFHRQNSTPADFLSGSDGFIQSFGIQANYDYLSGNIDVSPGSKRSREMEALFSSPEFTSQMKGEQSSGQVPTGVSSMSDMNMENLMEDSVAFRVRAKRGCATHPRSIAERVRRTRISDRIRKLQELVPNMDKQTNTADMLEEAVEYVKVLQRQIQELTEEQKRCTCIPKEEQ
UniProt Q9C690: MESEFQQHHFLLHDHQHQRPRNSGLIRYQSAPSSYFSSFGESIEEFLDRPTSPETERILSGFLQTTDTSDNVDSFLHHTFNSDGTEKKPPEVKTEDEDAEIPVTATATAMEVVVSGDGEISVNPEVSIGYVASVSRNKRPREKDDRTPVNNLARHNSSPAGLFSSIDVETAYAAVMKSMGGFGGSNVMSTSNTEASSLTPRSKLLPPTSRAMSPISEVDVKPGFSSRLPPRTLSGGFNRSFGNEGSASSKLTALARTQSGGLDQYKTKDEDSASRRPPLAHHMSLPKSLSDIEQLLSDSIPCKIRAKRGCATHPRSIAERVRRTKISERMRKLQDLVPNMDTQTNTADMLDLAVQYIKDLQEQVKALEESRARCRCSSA
UniProt Q9C8P8: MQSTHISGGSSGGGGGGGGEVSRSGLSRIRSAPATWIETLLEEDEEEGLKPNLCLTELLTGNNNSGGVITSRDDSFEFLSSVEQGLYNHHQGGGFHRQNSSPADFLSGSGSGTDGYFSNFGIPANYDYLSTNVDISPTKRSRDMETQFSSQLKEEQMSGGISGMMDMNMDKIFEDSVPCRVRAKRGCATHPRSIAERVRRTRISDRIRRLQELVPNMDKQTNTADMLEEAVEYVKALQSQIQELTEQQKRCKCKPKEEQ

T1: PHYTOCHROME AND FLOWERING TIME 1 (Arabidopsis thaliana) (UniProt Q7XYY2)
T1 sequence: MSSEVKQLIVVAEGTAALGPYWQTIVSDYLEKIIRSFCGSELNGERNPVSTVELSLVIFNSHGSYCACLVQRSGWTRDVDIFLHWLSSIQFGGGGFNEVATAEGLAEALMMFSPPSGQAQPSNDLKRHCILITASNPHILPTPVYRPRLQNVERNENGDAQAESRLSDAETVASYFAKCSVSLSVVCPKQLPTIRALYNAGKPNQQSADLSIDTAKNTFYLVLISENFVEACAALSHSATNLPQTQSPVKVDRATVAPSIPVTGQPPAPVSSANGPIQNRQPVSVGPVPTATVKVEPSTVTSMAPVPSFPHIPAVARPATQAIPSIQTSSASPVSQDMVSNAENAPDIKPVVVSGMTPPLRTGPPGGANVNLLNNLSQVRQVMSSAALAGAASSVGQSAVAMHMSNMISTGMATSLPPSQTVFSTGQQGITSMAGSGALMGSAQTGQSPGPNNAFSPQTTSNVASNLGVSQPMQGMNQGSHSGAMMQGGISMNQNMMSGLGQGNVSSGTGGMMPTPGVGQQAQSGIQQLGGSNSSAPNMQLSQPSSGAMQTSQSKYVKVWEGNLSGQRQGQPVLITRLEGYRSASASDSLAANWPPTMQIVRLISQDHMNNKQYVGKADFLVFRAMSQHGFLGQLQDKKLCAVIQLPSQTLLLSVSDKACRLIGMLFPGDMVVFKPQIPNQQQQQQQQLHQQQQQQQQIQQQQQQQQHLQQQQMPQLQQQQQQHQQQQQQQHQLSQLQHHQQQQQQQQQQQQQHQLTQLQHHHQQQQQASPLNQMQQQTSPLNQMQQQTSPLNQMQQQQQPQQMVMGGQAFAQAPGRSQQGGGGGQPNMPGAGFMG

T2: CDF1 (Arabidopsis thaliana) (UniProt Q8W1E3)
T2 sequence: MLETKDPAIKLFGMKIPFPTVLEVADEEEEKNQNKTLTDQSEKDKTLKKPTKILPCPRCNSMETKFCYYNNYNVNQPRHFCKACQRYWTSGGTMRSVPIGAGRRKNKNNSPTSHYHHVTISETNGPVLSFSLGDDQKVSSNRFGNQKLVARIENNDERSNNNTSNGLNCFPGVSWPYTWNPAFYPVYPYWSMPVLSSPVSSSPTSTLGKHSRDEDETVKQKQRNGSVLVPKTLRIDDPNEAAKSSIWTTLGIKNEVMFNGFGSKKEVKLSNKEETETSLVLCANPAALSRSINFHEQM

T3: CDF3 (Arabidopsis thaliana) (UniProt Q8LFV3)
T3 sequence: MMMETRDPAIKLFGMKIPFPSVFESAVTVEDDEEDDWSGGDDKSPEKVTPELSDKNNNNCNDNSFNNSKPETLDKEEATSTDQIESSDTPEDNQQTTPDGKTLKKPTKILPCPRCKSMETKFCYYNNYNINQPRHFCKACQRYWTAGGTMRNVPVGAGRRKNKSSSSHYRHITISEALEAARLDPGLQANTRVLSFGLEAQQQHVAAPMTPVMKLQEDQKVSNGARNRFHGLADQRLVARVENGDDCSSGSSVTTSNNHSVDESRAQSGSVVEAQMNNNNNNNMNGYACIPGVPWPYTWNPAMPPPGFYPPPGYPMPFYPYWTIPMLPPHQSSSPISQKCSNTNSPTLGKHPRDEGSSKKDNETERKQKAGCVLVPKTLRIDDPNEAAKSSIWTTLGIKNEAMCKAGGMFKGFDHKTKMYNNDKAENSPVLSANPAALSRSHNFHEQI

T4: CDF2 (Arabidopsis thaliana) (UniProt Q93ZL5)
T4 sequence: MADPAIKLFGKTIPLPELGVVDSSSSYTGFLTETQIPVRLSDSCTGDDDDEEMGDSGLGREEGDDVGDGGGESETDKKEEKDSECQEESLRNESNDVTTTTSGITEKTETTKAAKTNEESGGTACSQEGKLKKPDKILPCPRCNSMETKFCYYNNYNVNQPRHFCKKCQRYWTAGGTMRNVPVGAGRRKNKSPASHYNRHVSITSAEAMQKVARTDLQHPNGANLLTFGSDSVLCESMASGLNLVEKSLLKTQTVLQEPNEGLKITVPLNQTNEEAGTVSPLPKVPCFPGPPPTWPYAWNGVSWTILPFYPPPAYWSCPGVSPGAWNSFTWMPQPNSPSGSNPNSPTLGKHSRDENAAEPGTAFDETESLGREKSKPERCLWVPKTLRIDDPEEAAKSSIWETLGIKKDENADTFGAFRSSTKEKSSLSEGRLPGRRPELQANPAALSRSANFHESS


Key:
[1] = target: T1, PHYTOCHROME AND FLOWERING TIME 1 (Arabidopsis thaliana); assay: co-IP; GFP- and Myc-fused proteins transiently co-expressed in N. benthamiana leaves, collected 48 h after infiltration; anti-GFP- or anti-Myc-conjugated agarose beads; lysis buffer 50 mM Tris-HCl pH 7.5, 150 mM NaCl, 5 mM EDTA, 0.1% Triton X-100, 0.2% NP-40
[2] = target: T2, CDF1 (Arabidopsis thaliana); assay: two-hybrid; GAL4-AD and GAL4-BD derivatives co-transformed into yeast strain AH109; grown on SD-L/W, screened on SD-L/W/H or SD-L/W/H/A with 3-AT
[3] = target: T3, CDF3 (Arabidopsis thaliana); assay: as above
[4] = target: T4, CDF2 (Arabidopsis thaliana); assay: as above
[5] = target: T1, PHYTOCHROME AND FLOWERING TIME 1 (Arabidopsis thaliana); assay: as above
[6] = target: T2, CDF1 (Arabidopsis thaliana); assay: split reporter; LUC complementation imaging (LCI): nLUC and cLUC fusions co-infiltrated by Agrobacterium into N. benthamiana leaves; LUC activity 48 h after infiltration
[7] = target: T3, CDF3 (Arabidopsis thaliana); assay: as above
[8] = target: T4, CDF2 (Arabidopsis thaliana); assay: as above
[9] = target: T1, PHYTOCHROME AND FLOWERING TIME 1 (Arabidopsis thaliana); assay: as above
[10] = target: FBH4 (Arabidopsis thaliana) (UniProt Q66GR3); assay: two-hybrid; GAL4-AD and GAL4-BD derivatives co-transformed into yeast strain AH109; grown on SD-L/W, screened on SD-L/W/H or SD-L/W/H/A with 3-AT
[11] = target: FBH2 (Arabidopsis thaliana) (UniProt Q9M0R0); assay: as above
[12] = target: FBH3 (Arabidopsis thaliana) (UniProt Q9C690); assay: as above
[13] = target: FLOWERING BHLH 1 (Arabidopsis thaliana) (UniProt Q9C8P8); assay: as above
[14] = target: FBH4 (Arabidopsis thaliana) (UniProt Q66GR3); assay: split reporter; LUC complementation imaging (LCI): nLUC and cLUC fusions co-infiltrated by Agrobacterium into N. benthamiana leaves; LUC activity 48 h after infiltration
[15] = target: FBH2 (Arabidopsis thaliana) (UniProt Q9M0R0); assay: as above
[16] = target: FBH3 (Arabidopsis thaliana) (UniProt Q9C690); assay: as above
[17] = target: FLOWERING BHLH 1 (Arabidopsis thaliana) (UniProt Q9C8P8); assay: as above

| binding [1] | binding [2] | binding [3] | binding [4] | binding [5] | binding [6] | binding [7] | binding [8] | binding [9] | binding [10] | binding [11] | binding [12] | binding [13] | binding [14] | binding [15] | binding [16] | binding [17] | Molecule |
| --- | --- | --- | --- | --- | --- | --- | --- | --- | --- | --- | --- | --- | --- | --- | --- | --- | --- |
| binds | no binding | no binding | no binding | binds | no binding | no binding | no binding | binds | – | – | – | – | – | – | – | – | FLOWERING BHLH 1 (from UniProt Q9C8P8) |
| – | – | – | – | – | – | – | – | – | binds | binds | binds | binds | binds | binds | binds | binds | TCP4 (protein, UniProt Q8LPR5 1-420) MSDDQFHHPPPPSSMRHRSTSDAADGGCGEIVEVQGGHIVRSTGRKDRHSKVCTAKGPRDRRVRLSAHTAIQFYDVQDRLGFDRPSKAVDWLIKKAKTSIDELAELPPWNPADAIRLAAANAKPRRTTAKTQISPSPPPPQQQQQQQQLQFGVGFNGGGAEHPSNNESSFLPPSMDSDSIADTIKSFFPVIGSSTEAPSNHNLMHNYHHQHPPDLLSRTNSQNQDLRLSLQSFPDGPPSLLHHQHHHHTSASASEPTLFYGQSNPLGFDTSSWEQQSSEFGRIQRLVAWNSGGGGGATDTGNGGGFLFAPPTPSTTSFQPVLGQSQQLYSQRGPLQSSYSPMIRAWFDPHHHHQSISTDDLNHHHHLPPPVHQSAIPGIGFASGEFSSGFRIPARFQGQEEEQHDGLTHKPSSASSISRH |
